This data set concerns male fertility. Put plainly: Fertility of transgenic plants (complementation of male sterile COI1-30). It is filed as in vivo, Arabidopsis.

B1: COI1A384V: modified Arabidopsis thaliana COI1 protein with valine at position 384 (SEQ ID NO:2); also names transgenic plants expressing it (protein, listed as Arabidopsis thaliana)
chain: MEDPDIKRCKLSCVATVDDVIEQVMTYITDPKDRDSASLVCRRWFKIDSETREHVTMALCYTATPDRLSRRFPNLRSLKLKGKPRAAMFNLIPENWGGYVTPWVTEISNNLRQLKSVHFRRMIVSDLDLDRLAKARADDLETLKLDKCSGFTTDGLLSIVTHCRKIKTLLMEESSFSEKDGKWLHELAQHNTSLEVLNFYMTEFAKISPKDLETIARNCRSLVSVKVGDFEILELVGFFKAAANLEEFCGGSLNEDIGMPEKYMNLVFPRKLCRLGLSYMGPNEMPILFPFAAQIRKLDLLYALLETEDHCTLIQKCPNLEVLETRNVIGDRGLEVLAQYCKQLKRLRIERGADEQGMEDEEGLVSQRGLIALAQGCQELEYMVVYVSDITNESLESIGTYLKNLCDFRLVLLDREERITDLPLDNGVRSLLIGCKKLRRFAFYLRQGGLTDLGLSYIGQYSPNVRWMLLGYVGESDEGLMEFSRGCPNLQKLEMRGCCFSERAIAAAVTKLPSLRYLWVQGYRASMTGQDLMQMARPYWNIELIPSRRVPEVNQQGEIREMEHPAHILAYYSLAGQRTDCPTTVRVLKEPI
Turning to B1, the fertile lines (10 of 12 lines analyzed, COI1-30-null background) is given as 83%. Further, where the note is “compared with wild-type plants”, the “fertility penalty (number of developed siliques, seeds per silique)” value was “No fertility penalty”.
